Assay [1] concerns the target T1, SuhB (inositol mono-phosphatase SuhB), wild type (E. coli), P0ADG4.
T1 chain: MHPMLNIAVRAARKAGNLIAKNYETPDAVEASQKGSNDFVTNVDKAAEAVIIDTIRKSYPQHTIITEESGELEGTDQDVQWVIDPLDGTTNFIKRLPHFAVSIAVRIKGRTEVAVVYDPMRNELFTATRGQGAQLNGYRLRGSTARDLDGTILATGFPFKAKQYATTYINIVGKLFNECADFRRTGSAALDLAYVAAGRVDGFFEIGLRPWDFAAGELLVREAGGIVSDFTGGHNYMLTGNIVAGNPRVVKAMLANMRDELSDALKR
Description: crystal structure; SuhB-NusA^AR2 complex, 1.65 Å; two SuhB molecules and one NusA^AR2 in the asymmetric unit; both purified. The conditions noted are these: remark: other sources report otherwise.

For assay [2], the target named is T1, SuhB (inositol mono-phosphatase SuhB), …. Description: crystal structure; isolated wt SuhB, 2.25 Å; one monomer in the asymmetric unit, dimer by crystal symmetry; both purified. The conditions noted are these: remark: other sources report otherwise.

Results are given in words; binding and its absence hold for the method and conditions named. Some results given as binding are weak or reduced against the parent protein; the word gives no strength.

B1: SuhB (inositol mono-phosphatase SuhB), wild type, P0ADG4 1-267 (natural protein)
chain: T1 chain
On to B1, for which the binding entry in assay [1] and in assay [2] was “binds” each time.
